Assay results published in article PMC7944388.
No constants are given. Whether binding was seen depends on the method and setting. Binding seen in cells or lysates may run through a third protein. Some entries that bind do so weakly or less than the wild type. For part of these data: Where a sequence is shown, tags or fusion partners need not be part of it.

The chains behind the UniProt entries cited, without tags or fusion partners. Where a name states a change or a piece, a line headed by the entry shows the natural chain unless it says otherwise. A line that says so, or that is headed by a name, gives the form on record, which may keep a tag or linker. Residues count along the entry.
UniProt P07237: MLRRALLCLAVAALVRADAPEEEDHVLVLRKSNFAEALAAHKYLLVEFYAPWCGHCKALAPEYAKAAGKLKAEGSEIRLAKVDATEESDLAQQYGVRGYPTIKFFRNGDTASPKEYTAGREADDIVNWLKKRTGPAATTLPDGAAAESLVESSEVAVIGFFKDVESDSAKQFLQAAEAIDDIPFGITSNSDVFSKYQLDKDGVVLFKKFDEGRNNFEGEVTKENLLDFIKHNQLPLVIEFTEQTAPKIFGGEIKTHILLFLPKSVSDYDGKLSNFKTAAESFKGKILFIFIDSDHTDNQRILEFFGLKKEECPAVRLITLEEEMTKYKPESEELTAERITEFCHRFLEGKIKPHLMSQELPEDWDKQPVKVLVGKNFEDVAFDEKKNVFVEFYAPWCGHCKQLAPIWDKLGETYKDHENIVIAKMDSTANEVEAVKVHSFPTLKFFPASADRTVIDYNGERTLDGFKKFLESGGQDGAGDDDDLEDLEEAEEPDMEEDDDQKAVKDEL
Flag-tagged P4HB truncated mutant, first domain a (aa 1-138): residues 18-138 of P07237
UniProt P09103, residues 20-509: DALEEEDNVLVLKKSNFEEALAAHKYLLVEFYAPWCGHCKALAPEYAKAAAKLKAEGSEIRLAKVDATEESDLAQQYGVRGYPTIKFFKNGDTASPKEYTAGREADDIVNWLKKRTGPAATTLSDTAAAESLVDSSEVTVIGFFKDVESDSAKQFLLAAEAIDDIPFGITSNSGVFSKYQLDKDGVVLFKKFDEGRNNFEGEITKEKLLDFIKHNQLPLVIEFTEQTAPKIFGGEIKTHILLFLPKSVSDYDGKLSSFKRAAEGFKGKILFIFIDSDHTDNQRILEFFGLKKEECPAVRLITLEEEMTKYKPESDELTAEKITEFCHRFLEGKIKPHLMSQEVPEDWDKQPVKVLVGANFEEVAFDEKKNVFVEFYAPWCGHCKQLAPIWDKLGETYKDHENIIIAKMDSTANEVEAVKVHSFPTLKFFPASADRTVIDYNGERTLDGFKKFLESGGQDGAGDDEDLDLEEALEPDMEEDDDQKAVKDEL
UniProt P10415: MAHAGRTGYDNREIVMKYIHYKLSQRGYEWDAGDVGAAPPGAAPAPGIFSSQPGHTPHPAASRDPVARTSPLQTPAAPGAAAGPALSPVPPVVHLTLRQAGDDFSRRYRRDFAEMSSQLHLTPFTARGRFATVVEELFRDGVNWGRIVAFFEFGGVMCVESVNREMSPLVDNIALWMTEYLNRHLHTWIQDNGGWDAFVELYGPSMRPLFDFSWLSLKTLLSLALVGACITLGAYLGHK

Assays:
[1] = biological target: T1, phosphoglycerate dehydrogenase (PHGDH), endogenous (mouse (endogenous in GA muscle and C2C12)) (UniProt Q61753); test: co-IP; C2C12 myoblasts transfected with Flag-P4HB, precipitated with anti-PHGDH antibody, Flag tag blotted
T1 sequence: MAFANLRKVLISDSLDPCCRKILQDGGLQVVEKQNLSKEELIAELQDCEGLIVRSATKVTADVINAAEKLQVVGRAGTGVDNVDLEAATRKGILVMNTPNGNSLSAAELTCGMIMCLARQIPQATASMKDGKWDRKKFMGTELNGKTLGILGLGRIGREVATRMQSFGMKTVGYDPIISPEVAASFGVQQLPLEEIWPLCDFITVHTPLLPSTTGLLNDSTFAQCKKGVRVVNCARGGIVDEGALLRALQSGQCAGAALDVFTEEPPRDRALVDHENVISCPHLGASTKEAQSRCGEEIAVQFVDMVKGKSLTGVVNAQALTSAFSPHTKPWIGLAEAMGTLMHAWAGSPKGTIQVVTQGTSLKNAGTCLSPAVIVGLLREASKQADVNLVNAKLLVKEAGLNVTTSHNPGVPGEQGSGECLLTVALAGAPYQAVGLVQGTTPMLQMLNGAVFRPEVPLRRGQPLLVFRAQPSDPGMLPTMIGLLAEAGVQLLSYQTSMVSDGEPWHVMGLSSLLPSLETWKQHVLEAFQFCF

GST-PHGDH fusion protein = biological target: T2, GST-PHGDH fusion protein (UniProt O43175); test: pull-down; extracted Flag-P4HB protein incubated with GST or GST-PHGDH fusion protein and glutathione Sepharose beads at 4°C overnight; blot with P4HB antibody; only the target purified
T2 sequence: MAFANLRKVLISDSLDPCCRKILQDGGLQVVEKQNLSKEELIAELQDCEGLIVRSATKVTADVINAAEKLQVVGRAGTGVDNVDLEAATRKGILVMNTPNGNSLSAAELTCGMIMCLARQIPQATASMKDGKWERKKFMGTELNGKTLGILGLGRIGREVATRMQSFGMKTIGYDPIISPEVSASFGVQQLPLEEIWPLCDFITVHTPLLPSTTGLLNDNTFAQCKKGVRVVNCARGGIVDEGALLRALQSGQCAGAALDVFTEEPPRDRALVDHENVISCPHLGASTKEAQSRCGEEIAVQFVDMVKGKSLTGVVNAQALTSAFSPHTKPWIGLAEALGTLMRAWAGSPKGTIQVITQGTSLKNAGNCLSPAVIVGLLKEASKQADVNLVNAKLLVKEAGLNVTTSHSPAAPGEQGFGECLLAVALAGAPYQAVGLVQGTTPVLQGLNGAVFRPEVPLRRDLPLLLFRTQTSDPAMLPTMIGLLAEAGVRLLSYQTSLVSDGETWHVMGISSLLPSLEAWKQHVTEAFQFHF

V5-PHGDH = biological target: T3, V5-PHGDH (UniProt O43175); test: co-IP; 293T cells transfected with V5-PHGDH, precipitated with anti-V5 antibody, endogenous Bcl-2 blotted
T3 sequence: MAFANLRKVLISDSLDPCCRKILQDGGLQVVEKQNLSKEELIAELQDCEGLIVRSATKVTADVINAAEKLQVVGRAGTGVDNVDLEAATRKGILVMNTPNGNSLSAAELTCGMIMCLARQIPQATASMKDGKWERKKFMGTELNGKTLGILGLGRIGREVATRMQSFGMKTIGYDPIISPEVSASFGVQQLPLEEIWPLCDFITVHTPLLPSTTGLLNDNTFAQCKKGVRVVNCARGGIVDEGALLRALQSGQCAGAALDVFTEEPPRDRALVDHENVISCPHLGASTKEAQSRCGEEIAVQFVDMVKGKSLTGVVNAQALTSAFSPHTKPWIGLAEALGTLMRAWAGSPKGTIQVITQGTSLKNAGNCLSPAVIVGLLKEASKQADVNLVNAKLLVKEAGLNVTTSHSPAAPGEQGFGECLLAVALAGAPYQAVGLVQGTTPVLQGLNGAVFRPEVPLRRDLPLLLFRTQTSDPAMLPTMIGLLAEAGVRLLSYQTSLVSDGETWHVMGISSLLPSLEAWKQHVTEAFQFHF

[2] = biological target: Flag-P4HB (full-length coding region of P4HB with triple flag tags at the C-terminus) (UniProt P07237); test: co-IP; C2C12 myoblasts transfected with control vector, Flag-tagged wild type or truncated mutants of P4HB; anti-FLAG M2 Magnetic Beads; PHGDH blotted
[3] = biological target: Flag-tagged P4HB truncated mutant, first domain a (aa 1-138) (UniProt P07237); test: as above
[4] = biological target: prolyl 4-hydroxylase subunit beta (P4HB), endogenous (mouse (endogenous in GA muscle and C2C12)) (UniProt P09103); test: co-IP; C2C12 myoblast lysate, both endogenous, precipitated with anti-P4HB antibody, PHGDH blotted; IgG control; lysis buffer pH 7.6, 150 mM NaCl, 0.8% NP-40, 4°C overnight

Molecule: Flag-P4HB (full-length coding region of P4HB with triple flag tags at the C-terminus) (from UniProt P07237 18-508)
- binding [1]: binds
- binding (GST-PHGDH fusion protein): binds

Molecule: Bcl-2, endogenous (from UniProt P10415 1-239)
- binding (V5-PHGDH): binds

B1: phosphoglycerate dehydrogenase (PHGDH), endogenous (protein, UniProt Q61753 1-533)
chain: MAFANLRKVLISDSLDPCCRKILQDGGLQVVEKQNLSKEELIAELQDCEGLIVRSATKVTADVINAAEKLQVVGRAGTGVDNVDLEAATRKGILVMNTPNGNSLSAAELTCGMIMCLARQIPQATASMKDGKWDRKKFMGTELNGKTLGILGLGRIGREVATRMQSFGMKTVGYDPIISPEVAASFGVQQLPLEEIWPLCDFITVHTPLLPSTTGLLNDSTFAQCKKGVRVVNCARGGIVDEGALLRALQSGQCAGAALDVFTEEPPRDRALVDHENVISCPHLGASTKEAQSRCGEEIAVQFVDMVKGKSLTGVVNAQALTSAFSPHTKPWIGLAEAMGTLMHAWAGSPKGTIQVVTQGTSLKNAGTCLSPAVIVGLLREASKQADVNLVNAKLLVKEAGLNVTTSHNPGVPGEQGSGECLLTVALAGAPYQAVGLVQGTTPMLQMLNGAVFRPEVPLRRGQPLLVFRAQPSDPGMLPTMIGLLAEAGVQLLSYQTSMVSDGEPWHVMGLSSLLPSLETWKQHVLEAFQFCF
- binding [2]: binds
- binding [3]: binds
- binding [4]: binds
